According to patent US12180255B2, “Compositions and methods for derepressing RE1 silencing transcription factor target genes” (Alcamena Stem Cell Therapeutics, LLC, priority 2019, dated 2024):
Part of at least one peptide drawing is inferred or uncertain, most often the ends. Some entries share one result that the patent states for a list of compounds. Where a SMILES comes first, the peptide text is derived from it.

Tested on: NBFL cells
Assay: BDNF, NGF and KV4.3 transcript levels in NBFL cells dosed with linear or cyclic RPP
Format: cell-based
Settings: for increase in KV4.3 mRNA: NBFL cells dosed with linear or cyclic RPP; for Increase, BDNF mRNA / Increase, KV4.3 mRNA / Increase, NGF mRNA: NBFL, 1 μM
Protocol: FIG. 9. Comparison of linear and cyclic RPP. […] Efficacy on was assessed by measuring changes in (A) BDNF, (B) NGF, and (C) KV4.3 transcript levels. N=1
Plasmids. RPP (SEQ ID NOS: 2 and 4): One segment of this construct containing T7 promoter, CPP, and His tag was synthesized as a gBlock (Table 8) by IDT and amplified with primers described in Table 8. The PCR reaction (20 μL) was initially heated at 95° C. for 2.5 min followed by 30 cycles of denaturation at 94° C. for 15 sec., annealing at 55° C. for 15 sec., and extension at 72° C. for 30 seconds. Following amplification, PCR fragment was gel-purified by the QIAGEN gel-band purification kit according to manufacturer's protocol.
In vitro Expression. RPP (Table 8) or CP (Table 9) were expressed in vitro using the PURE Express In Vitro Protein Synthesis Kit (New England Biolabs). The RPP (SEQ ID NOS: 2 and 4) or CP sequence was amplified from the RPP (SEQ ID NOS: 2 and 4) or CP expression constructs (Table 8 and 9) with primers listed in Table 8, and gel-purified by the QIAGEN gel-band purification kit. The PCR reaction (20 μL) was initially heated at 95° C. for 2.5 min followed by 30 cycles of denaturation at 94° C. for 15 sec., annealing at 55° C. for 15 sec., and extension at 72° C. for 30 sec. Then, 15 μL of the purified PCR fragment was mixed with 10 μL of Solution A and 7.5 μL of Solution B of the PURE Express In Vitro Protein Synthesis Kit (New England Biolabs) and incubated 2 hours at 37° C. Next, 2 μL of DNAse I was added and incubated for 20 min at 37° C.
Purification. RPP (SEQ ID NOS: 2 and 4) and CP: The final solution from the in vitro expression step was diluted to 100 μL and filtered through the Amicon Ultracel 0.5 mL-100K columns (Sigma) to remove ribosomes. The flow through was added to 100 μL of washed Ni-NTA Magnetic Agarose Beads (Qiagen) and was washed with wash buffer as described by the manufacturer.
Cyclization. The RPP (SEQ ID NO: 2) or was cyclized by mixing the beads with 500 μL of the cyclization solution which was made by mixing 2.65 mL of the 1.33×PBS (66.5 mM phosphate buffer, 400 mM NaCl) with 1.32 mL of dibromo-m-xylene solution in acetonitrile (2.5 mg/mL). Following incubation with the cyclization solution beads were washed once with wash buffer I (PBS with 25 mM imidazole, 0.5 μL/mL of mercaptoethanol), once with wash buffer II (PBS with 25 mM imidazole, 0.5 mM TCEP), twice with wash buffer III (PBS with 25 mM imidazole) and eluted with 50 μL of the elution buffer (PBS with 500 mM imidazole). Imidazole was removed using Bio-Rad Micro Bio-Spin Chromatography columns.
Dosing and Cell Culture. NBFL cells (FIG. 9) grown in 6 well were dosed with 1 μM of linear (SEQ ID NO: 2) or cyclic (SEQ ID NO: 2) RPP (Table 8) or control peptide (Table 9) for 16 or 48 hours.
After dosing, cells were lysed and assessed for BDNF, NGF, and KV4.3 mRNA levels (FIG. 9). All of the primers used have been described except for NGF: forward: 5′[…]3′ (SEQ ID NO: 338) and reverse 5′[…]3′ (SEQ ID NO: 339).

| Compound | increase in KV4.3 mRNA | Increase, BDNF mRNA (16 h) [× x] | Increase, KV4.3 mRNA (16 h) [× x] | Increase, NGF mRNA (16 h) [× x] | Increase, BDNF mRNA (48 h) [x] | Increase, KV4.3 mRNA (48 h) [x] | Increase, NGF mRNA (48 h) [x] | Increase, BDNF mRNA (48 h, listed as Linear) [× x] | Increase, KV4.3 mRNA (48 h, listed as Linear) [× x] | Increase, NGF mRNA (48 h, listed as Linear) [× x] |
| --- | --- | --- | --- | --- | --- | --- | --- | --- | --- | --- |
| MCTEDLEPPEPPLPKENCGSGSGRKKRRQRRRGGSGSLGHHHHHHGTGY (cyclized with dibromo-m-xylene) [SEQ ID NO: 2, RPP-CPP-His, cyclized with dibromo-m-xylene] | up to 4 fold |  |  |  |  |  |  |  |  |  |
| CC(C)C[C@H](NC(=O)[C@H](CC(=O)O)NC(=O)[C@H](CCC(=O)O)NC(=O)[C@@H](NC(=O)[C@H](CCCCN)NC(=O)[C@H](CC(=O)O)NC(=O)[C@H](CC(=O)O)NC(=O)[C@H](CC(=O)O)NC(=O)[C@H](CC(=O)O)NC(=O)[C@H](CCCCN)NC(=O)[C@H](Cc1ccc(O)cc1)NC(=O)[C@H](CC(=O)O)NC(=O)[C@H](CCCCN)NC(=O)[C@H](CCC(N)=O)NC(=O)[C@H](C)NC(=O)[C@@H](N)CS)[C@@H](C)O)C(=O)N[C@@H](CCC(=O)O)C(=O)N1CCC[C@H]1C(=O)N1CCC[C@H]1C(=O)N[C@@H](CCC(=O)O)C(=O)N1CCC[C@H]1C(=O)N1CCC[C@H]1C(=O)N[C@@H](CC(C)C)C(=O)N1CCC[C@H]1C(=O)N[C@@H](CCCCN)C(=O)N[C@@H](CCC(=O)O)C(=O)N[C@@H](CC(N)=O)C(=O)NCC(=O)N[C@@H](CCCNC(=N)N)C(=O)N[C@@H](CCCCN)C(=O)N[C@@H](CCCCN)C(=O)N[C@@H](CCCNC(=N)N)C(=O)N[C@@H](CCCNC(=N)N)C(=O)N[C@@H](CCC(N)=O)C(=O)N[C@@H](CCCNC(=N)N)C(=O)N[C@@H](CCCNC(=N)N)C(=O)N[C@@H](CCCNC(=N)N)C(=O)NCC(=O)O [SEQ ID NO: 4] (H-CAQKDYKDDDDKTEDLEPPEPPLPKENGRKKRRQRRRG-OH; N-terminus and C-terminus assumed) | up to 4 fold | 5 | 5 | 3.2 | 2.3 | 19.5 | 1.9 | 2.25 | 5 | 1.66 |
